Values quoted from earlier work as cited in patent US10287616B2, “Label free biosensors, gram-negative bacteria detection, and real-time and end point determination of antibiotic effects” (priority 2015, dated 2019).
For at least one compound, name, drawing or mass did not settle the structure.

System: ATCC 25923
Settings: cited from earlier work

**Q.** Which MIC does the source give for `CN(C)[C@@H]1C(O)=C(C(N)=O)C(=O)[C@@]2(O)C(O)=C3C(=O)c4c(O)cccc4[C@@](C)(O)[C@H]3C[C@@H]12` [tetracycline] here?
**A.** The MIC was “***Tetracycline: 0.16 mg/L (ATCC 25923)”.
